Measurements from doi:10.1101/2021.06.01.446555.
No constants are given. Whether binding was seen depends on the method and setting. Binding seen in cells or lysates may run through a third protein. These calls come from enrichment with a bait or labelling near it, and not all partners need be listed.

Chains of the proteins cited; added tags and fusions are not shown. Lines headed by an entry give the natural chain unless they say otherwise; changes in a name come on top.
UniProt P0DTC3, whole entry: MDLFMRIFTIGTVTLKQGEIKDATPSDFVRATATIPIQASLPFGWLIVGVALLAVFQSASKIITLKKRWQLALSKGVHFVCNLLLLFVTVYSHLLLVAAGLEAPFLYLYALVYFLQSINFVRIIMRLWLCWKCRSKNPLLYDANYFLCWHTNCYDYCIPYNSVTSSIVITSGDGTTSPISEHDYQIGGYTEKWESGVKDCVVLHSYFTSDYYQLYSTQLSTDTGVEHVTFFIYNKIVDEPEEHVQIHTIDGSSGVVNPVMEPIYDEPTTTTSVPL
UniProt Q9NQX7, whole entry, stated change not applied: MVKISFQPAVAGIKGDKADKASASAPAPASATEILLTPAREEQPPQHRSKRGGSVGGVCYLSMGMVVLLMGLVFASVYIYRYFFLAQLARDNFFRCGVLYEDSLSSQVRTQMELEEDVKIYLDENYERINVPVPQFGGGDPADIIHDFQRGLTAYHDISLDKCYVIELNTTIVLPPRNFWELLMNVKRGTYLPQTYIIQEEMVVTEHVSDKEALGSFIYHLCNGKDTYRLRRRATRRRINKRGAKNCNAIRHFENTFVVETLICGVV

Target: ORF3a-linker-GFP (SARS-CoV-2 ORF3a tagged with GFP) (SARS-CoV-2) (UniProt P0DTC3)
Experiment: proximity labelling

Substance | binding
SAR1A (from UniProt Q9NR31 1-198) | binds
ITM2C (from UniProt Q9NQX7) | binds
SEC63 (from UniProt Q9UGP8 1-760) | binds
ZC3HAV1 (CCCH-type zinc-finger antiviral protein) (from UniProt Q7Z2W4 1-902) | binds
RNF5 (E3 ubiquitin ligase) (from UniProt Q99942 1-180) | binds
SLC22A5 (from UniProt O76082 1-557) | binds
SLC16A1 (from UniProt P53985 1-500) | binds
RAB7A (from UniProt P51149 1-207) | binds
VAMP3 (from UniProt Q15836 1-100) | binds
EPHA2 (from UniProt P29317 24-976) | binds
BET1L (from UniProt Q9NYM9 1-111) | binds
